Values from PubChem BioAssay AID504793 (Drosophila RNAi Screening Center, 2011)

- Test: 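Genes required for cells to halt at G2/M after double-strand DNA breaks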 (primary screen)
- Cells: Drosophila S2R+ cells
- Knock-down reagent: long dsRNA against Drosophila genes, about 0.25 µg dsRNA per well
- Duration: 4 days of dsRNA, then 4 hours of drug before read-out
- Challenge: doxorubicin 0.5 µM for 4 hours to cause double-strand breaks, in cells also given a low, harmless dose of dsRNA against nbs to sensitise the assay
- Measurement: 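Per-well count of mitotic cells stained for phospho-histone H3 after doxorubicin exposure, used as mitotic index; counts are raw and not normalised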
- Scale: mitotic cells: higher = more cells in mitosis, weaker G2 arrest
- Call rule: 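a call needs confirmation in secondary tests, with other dsRNAs and a check of mitotic timing without damage, not just a high primary count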
- Calls: active = confirmed in follow-up tests; inactive = not confirmed
The screen tested about 23,000 reagents; this is an unselected part of those with a known target gene and a result. Over the whole deposit, 62 (0.27%) are marked active. 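Calls come from follow-up tests whose scores are not deposited, so confirmed genes may have low counts here; counts are not normalised per plate.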 Raw values vary from plate to plate and are shown uncorrected. Entries without a mark were called inactive. The numbers tell different reagents against one gene apart. Names joined by + are all predicted targets of the reagent.

predicted target | reagent | mitotic cells, replicate 1
CG5167 | 1 | 3
CG4325 | 1 | 2
CG4325 | 2 | 7
Ublcp1 | 1 | 6
Ublcp1 | 2 | 4
CG33286 | 1 | 4
CG33286 | 2 | 7
CG10738 | 1 | 4
CG10738 | 2 | 8
Hip14 | 1 | 15
sle + CG12592 | 1 | 8
sle + CG12592 | 2 | 7
Polr3E | 1 | 4
Polr3E | 2 | 1
Karybeta3 | 1 | 2
CG15333 | 1 | 11
CG15333 | 2 | 8
Oli | 1 | 7
Oli | 2 | 4
CG7920 | 1 | 7
CG7920 | 2 | 7
CG30466 | 1 | 5
scyl | 1 | 5
scyl | 2 | 3
swa | 1 | 5
swa | 2 | 5
PGRP-SB1 | 1 | 7
CG4537 | 1 | 2
CG11125 | 1 | 3
vex | 1 | 9
vex | 2 | 11
vex | 3 | 6
vex | 4 | 6
CG1265 | 1 | 7
mei-218 + mei-217 | 1 | 8
eEF1alpha1 | 1 | 5
eEF1alpha1 | 2 | 2
amd | 1 | 6
amd | 2 | 6
mip120 | 1 | 11
mip120 | 2 | 6
spas | 1 | 6
CG13603 | 1 | 2
CG43658 | 1 | 8
CG43658 | 2 | 5
Aladin | 1 | 8
Aladin | 2 | 3
Kcmf1 | 1 | 5
Kcmf1 | 2 | 11
RpS3A | 1 | 11
CG6028 | 1 | 4
CG13244 | 1 | 12
RhoGAPp190 | 1 | 10
RhoGAPp190 | 2 | 10
CG18213 | 1 | 6
Fbxl4 | 1 | 9
Ir67c | 1 | 8
Zmynd8 | 1 | 4
Zmynd8 | 2 | 3
NimC4 | 1 | 8
Bmcp | 1 | 2
hzg | 1 | 5
DCX-EMAP | 1 | 8
DCX-EMAP | 2 | 3
DCX-EMAP | 3 | 5
CG5555 | 1 | 13
CG32299 + CG32298 | 1 | 4
CG32299 + CG32298 | 2 | 7
CG32299 + CG32298 | 3 | 4
Cdlc2 | 1 | 5
Cdlc2 | 2 | 9
CG12971 | 1 | 2
CG12971 | 2 | 5
Eip74EF | 1 | 4
Eip74EF | 2 | 9

10 of these entries in another layout.
mip120 #2: mitotic cells, replicate 1 = 6
spas: mitotic cells, replicate 1 = 6
CG13603: mitotic cells, replicate 1 = 2
CG43658 #1: mitotic cells, replicate 1 = 8
CG43658 #2: mitotic cells, replicate 1 = 5
Aladin #1: mitotic cells, replicate 1 = 8
Aladin #2: mitotic cells, replicate 1 = 3
Kcmf1 #1: mitotic cells, replicate 1 = 5
Kcmf1 #2: mitotic cells, replicate 1 = 11
RpS3A: mitotic cells, replicate 1 = 11
